In the supplement of paper PMC10849652:
This is one part of the list.

Protein sequences, listed by entry. Tags and fused reporters are not part of them. Lines headed by an entry give the natural chain unless they say otherwise; changes in a name come on top.
UniProt Q5SNV9: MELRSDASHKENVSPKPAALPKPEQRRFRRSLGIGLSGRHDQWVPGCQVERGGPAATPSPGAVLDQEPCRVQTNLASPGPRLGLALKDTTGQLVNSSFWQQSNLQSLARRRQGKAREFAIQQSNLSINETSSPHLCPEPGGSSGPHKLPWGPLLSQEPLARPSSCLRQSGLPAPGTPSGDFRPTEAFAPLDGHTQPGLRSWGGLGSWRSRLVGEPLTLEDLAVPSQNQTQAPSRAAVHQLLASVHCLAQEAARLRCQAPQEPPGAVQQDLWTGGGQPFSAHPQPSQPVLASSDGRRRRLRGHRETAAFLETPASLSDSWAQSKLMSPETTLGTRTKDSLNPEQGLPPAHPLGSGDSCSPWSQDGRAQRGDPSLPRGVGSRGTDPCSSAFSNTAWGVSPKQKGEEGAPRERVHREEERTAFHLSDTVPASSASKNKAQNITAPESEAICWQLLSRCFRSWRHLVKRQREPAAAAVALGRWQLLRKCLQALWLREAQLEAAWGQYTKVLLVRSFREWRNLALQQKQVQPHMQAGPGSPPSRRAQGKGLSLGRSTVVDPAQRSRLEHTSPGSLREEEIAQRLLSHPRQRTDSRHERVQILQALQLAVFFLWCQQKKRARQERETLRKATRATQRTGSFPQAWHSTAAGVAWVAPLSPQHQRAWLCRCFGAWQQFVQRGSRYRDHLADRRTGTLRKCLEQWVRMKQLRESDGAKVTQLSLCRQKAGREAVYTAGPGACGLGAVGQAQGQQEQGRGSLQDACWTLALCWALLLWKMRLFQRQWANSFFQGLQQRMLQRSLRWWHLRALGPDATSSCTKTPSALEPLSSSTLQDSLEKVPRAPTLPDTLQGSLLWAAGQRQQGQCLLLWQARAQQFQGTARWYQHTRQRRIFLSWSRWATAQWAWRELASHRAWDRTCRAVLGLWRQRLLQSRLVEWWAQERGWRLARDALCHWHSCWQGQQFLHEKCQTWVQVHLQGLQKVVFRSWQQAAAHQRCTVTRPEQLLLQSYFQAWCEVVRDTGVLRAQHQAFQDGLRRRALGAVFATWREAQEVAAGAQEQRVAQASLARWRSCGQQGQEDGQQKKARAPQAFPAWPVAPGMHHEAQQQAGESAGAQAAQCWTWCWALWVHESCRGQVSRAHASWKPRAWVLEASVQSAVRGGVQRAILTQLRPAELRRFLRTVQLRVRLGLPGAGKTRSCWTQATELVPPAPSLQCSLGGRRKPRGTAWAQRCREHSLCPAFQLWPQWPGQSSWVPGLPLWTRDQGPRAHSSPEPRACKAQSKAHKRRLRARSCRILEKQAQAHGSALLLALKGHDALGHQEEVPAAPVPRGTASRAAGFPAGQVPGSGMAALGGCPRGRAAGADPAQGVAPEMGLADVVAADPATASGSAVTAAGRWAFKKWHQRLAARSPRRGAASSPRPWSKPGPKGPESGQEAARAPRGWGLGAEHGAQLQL
UniProt Q9BV19: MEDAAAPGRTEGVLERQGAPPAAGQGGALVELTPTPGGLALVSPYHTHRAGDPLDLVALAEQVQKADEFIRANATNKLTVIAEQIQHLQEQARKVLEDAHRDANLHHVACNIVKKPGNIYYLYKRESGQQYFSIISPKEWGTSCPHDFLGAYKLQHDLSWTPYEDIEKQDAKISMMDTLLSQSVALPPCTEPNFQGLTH
UniProt Q8WUQ7: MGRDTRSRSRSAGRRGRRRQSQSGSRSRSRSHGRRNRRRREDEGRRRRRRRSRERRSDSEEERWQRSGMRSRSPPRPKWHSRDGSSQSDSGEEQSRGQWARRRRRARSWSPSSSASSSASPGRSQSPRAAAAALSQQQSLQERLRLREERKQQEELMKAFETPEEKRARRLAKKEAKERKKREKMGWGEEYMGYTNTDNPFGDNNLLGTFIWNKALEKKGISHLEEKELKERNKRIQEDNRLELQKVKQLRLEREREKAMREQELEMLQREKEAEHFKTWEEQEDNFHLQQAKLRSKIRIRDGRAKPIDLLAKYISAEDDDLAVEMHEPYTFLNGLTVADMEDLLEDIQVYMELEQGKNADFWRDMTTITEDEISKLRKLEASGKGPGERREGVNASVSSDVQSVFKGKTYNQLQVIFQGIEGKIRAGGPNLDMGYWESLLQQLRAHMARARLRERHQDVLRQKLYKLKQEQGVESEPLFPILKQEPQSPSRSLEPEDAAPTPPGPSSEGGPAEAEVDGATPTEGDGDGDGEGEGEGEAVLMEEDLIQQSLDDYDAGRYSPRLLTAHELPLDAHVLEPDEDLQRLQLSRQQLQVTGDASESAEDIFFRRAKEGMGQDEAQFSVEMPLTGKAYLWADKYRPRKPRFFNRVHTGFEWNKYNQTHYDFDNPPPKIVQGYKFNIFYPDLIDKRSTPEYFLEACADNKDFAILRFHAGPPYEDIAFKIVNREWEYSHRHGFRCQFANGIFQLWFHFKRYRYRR
UniProt Q5T5Y3: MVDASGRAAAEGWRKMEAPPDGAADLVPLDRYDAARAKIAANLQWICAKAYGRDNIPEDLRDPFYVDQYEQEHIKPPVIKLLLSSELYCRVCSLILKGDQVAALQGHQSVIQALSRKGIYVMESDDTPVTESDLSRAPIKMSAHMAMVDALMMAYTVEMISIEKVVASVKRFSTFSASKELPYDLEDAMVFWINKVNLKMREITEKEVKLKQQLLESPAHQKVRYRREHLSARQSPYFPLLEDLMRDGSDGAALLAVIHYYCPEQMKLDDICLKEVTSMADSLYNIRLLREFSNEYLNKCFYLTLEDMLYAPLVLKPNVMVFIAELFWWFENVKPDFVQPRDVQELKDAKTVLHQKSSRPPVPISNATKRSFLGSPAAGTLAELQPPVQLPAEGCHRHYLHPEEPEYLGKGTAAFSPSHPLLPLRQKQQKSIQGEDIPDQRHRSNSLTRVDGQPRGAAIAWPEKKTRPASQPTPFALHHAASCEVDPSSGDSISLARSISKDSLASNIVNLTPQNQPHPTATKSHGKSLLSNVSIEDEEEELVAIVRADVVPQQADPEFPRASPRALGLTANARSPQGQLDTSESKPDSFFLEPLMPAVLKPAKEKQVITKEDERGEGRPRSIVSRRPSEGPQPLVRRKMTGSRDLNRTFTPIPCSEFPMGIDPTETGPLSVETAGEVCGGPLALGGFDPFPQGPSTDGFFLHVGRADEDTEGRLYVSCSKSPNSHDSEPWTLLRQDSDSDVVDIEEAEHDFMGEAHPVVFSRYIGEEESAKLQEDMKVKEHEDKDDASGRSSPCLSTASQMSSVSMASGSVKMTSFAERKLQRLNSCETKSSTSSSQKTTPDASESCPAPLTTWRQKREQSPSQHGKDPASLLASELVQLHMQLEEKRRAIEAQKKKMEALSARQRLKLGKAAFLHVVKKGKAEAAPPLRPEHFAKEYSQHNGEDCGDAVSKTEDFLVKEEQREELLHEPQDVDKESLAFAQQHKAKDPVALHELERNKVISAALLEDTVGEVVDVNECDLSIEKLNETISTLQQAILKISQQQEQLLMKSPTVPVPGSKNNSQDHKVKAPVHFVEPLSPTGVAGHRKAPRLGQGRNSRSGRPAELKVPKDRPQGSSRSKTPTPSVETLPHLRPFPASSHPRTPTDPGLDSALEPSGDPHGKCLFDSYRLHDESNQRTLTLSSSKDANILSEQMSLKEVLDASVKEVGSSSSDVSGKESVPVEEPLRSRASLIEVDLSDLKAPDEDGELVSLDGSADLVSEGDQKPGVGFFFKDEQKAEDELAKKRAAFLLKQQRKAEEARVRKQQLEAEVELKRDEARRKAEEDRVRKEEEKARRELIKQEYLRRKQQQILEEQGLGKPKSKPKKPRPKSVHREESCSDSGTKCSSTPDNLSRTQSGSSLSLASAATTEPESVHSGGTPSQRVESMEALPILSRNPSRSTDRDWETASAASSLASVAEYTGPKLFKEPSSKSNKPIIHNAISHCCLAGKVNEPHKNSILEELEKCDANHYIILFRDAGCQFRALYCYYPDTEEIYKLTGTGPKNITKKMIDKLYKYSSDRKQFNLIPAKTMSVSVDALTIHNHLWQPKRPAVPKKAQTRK
UniProt O95873: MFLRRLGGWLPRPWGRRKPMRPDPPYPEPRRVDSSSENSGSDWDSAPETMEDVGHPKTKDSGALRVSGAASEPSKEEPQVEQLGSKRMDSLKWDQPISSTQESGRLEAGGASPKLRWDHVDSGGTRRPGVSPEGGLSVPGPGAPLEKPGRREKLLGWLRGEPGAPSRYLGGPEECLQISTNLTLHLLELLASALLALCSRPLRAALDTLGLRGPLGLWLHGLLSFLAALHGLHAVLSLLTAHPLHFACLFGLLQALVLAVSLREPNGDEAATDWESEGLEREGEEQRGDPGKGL
UniProt Q13555: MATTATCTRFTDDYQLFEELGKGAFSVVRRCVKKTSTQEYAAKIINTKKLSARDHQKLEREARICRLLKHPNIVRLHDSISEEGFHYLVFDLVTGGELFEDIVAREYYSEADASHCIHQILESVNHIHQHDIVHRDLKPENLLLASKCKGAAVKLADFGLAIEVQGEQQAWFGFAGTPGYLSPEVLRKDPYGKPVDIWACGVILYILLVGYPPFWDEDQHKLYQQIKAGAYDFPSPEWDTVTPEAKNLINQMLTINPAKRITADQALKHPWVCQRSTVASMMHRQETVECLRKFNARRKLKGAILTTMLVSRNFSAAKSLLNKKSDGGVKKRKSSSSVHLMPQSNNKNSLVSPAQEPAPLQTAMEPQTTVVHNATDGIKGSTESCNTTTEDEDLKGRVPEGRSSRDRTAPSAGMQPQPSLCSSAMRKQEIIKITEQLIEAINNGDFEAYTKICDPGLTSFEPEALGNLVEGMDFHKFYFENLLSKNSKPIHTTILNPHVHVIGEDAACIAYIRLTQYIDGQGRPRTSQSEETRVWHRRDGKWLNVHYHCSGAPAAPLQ
UniProt P47756, whole entry, looked up: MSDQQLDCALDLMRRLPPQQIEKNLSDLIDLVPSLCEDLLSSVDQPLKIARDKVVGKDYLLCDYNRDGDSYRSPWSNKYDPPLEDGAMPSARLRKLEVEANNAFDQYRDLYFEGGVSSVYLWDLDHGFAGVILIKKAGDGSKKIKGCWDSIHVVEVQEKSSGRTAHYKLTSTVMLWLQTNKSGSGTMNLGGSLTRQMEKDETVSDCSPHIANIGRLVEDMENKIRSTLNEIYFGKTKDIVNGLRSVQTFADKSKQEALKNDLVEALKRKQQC
UniProt Q07021: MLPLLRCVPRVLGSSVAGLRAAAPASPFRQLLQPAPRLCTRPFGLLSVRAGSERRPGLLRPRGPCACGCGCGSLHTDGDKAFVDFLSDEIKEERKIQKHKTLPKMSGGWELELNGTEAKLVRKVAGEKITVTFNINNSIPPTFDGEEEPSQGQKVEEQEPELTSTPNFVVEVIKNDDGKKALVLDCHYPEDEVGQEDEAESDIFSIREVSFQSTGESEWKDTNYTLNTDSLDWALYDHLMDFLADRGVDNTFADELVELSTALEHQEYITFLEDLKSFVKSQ
UniProt Q9HAS0: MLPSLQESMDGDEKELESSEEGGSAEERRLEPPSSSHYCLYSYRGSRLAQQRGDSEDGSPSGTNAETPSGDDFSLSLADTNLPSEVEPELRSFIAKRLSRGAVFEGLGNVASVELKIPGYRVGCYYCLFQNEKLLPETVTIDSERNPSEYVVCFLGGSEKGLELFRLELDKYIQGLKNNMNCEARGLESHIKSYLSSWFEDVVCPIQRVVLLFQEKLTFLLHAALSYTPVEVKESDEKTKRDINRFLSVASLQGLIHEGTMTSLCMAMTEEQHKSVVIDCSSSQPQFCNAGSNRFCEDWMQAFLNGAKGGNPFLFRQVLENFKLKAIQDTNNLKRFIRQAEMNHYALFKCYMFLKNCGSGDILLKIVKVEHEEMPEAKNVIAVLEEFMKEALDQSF
UniProt Q8WUR7: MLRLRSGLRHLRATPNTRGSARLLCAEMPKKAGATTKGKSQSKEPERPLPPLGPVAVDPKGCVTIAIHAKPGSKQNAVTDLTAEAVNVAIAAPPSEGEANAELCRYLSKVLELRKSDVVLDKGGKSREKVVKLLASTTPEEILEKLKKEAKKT
UniProt Q9Y2V0: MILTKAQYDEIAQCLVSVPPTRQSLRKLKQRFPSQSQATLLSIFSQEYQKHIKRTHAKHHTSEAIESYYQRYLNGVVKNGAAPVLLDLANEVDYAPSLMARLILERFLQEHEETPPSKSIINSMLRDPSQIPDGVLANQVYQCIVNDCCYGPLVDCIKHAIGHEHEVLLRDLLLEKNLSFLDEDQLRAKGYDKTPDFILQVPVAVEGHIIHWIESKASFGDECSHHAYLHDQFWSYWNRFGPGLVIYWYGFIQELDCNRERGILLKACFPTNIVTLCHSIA
UniProt Q6P1S2: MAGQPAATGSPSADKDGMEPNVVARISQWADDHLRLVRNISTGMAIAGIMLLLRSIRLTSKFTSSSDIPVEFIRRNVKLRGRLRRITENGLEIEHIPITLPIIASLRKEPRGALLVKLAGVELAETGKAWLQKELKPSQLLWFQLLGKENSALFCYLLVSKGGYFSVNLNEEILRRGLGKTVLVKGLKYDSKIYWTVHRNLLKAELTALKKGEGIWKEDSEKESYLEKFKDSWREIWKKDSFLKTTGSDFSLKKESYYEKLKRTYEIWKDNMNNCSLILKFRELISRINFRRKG

What was measured:
Test in all cases: log2 fold change, soluble protein after heating vs DMSO (PISA); higher = thermal stabilisation; K562 lysate, 10 uM; active = over 0.2 and 3.5 SD of the protein, either way, in both replicates (recomputed)
[1] = compound: C=CC(=O)N1CCC[C@@H](n2nc(-c3ccc(Oc4ccccc4)cc3)c3c(N)ncnc32)C1 [ibrutinib]
How it was run: (§1)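 K562 pellets were dounce-homogenised in PBS pH 7.4 with 1 mM MgCl2, and the crude extract at 1 mg/mL protein was treated with 10 μM compound for 30 min. Aliquots were heated for 3 min across 48°C-58°C, pooled, and brought to 0.5% NP-40 at 4°C; soluble protein was the supernatant after 21,000xg for 90 min. Soluble protein was quantified by TMTpro 16plex LC-MS/MS with channel sums equalised, and reported as log2 fold change in thermal stability against DMSO controls, with values from duplicates.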

[2] = compound: CC(=O)c1cnc2ccc(-c3cc(Cl)c(O)c(Cl)c3)nc2c1N[C@H]1CC[C@H](CN(C)C)CC1
How it was run: as §1

[3] = compound: CC(C)(C)Cn1c(N)nc2ccc(-c3[nH]c(C(C)(C)C)nc3-c3ccc(F)cc3)nc21 [ralimetinib]
How it was run: as §1

[4] = compound: CC(C)(O)CC(=O)NCCn1ccc2ncnc(Nc3ccc(Oc4cccc(C(F)(F)F)c4)c(Cl)c3)c21
How it was run: as §1

[5] = compound: CC(C)C1=C2N=C(C=C(N2N=C1)NCC3=CC=CC=C3)NCCCCCCN
How it was run: as §1

[6] = compound: CC1=C(C(CC(=O)N1)C2=CC=C(C=C2)C(F)(F)F)C(=O)NC3=C(C=C4C(=C3)C=NN4)F
How it was run: as §1

[7] = compound: CC1=C(C2=C(C=C1)C(=O)C3=CC=CC=C3N2CCCN)C
How it was run: as §1

[8] = compound: CC1=C(C=C(C=C1)NC(=O)C2=CC(=CC=C2)C(C)(C)C#N)NC3=CC4=C(C=C3)N=CN(C4=O)C
How it was run: as §1

[9] = compound: CC1=C(C=C(C=C1)NC(=O)C2=CC(=CC=C2)N(C)C)NC(=O)C3=CC=C(C=C3)O
How it was run: as §1

[10] = compound: CC1=CC=C(C=C1)SC2=C3C=C(SC3=CN=C2)C(=O)N
How it was run: as §1

Measured: log2 fold change

CAPN15 (UniProt O75808)
inactive: [1] 0.037 | [2] -0.065 | [3] 0.09 | [4] 0.008 | [5] -0.002 | [6] 0.025 | [7] 0.019 | [8] 0.086 | [9] 0.007 | [10] 0.046

C2orf68 (UniProt Q2NKX9)
inactive: [1] 0.134 | [2] 0.02 | [3] -0.147 | [4] -0.001 | [5] 0.021 | [6] 0.139 | [7] 0.126 | [8] 0.03 | [9] -0.069 | [10] -0.052

CALM2 (UniProt P0DP24)
inactive: [1] 0.262 | [2] 0.004 | [3] -0.014 | [4] -0.238 | [5] -0.07 | [6] -0.044 | [7] -0.101 | [8] -0.013 | [9] -0.099 | [10] 0.004

C1orf167 isoform 2 (UniProt Q5SNV9)
inactive: [1] -0.022 | [2] 0.001 | [3] -0.012 | [4] -0.076 | [5] 0.144 | [6] -0.107 | [7] 0.08 | [8] 0.034 | [9] 0.158 | [10] -0.045

C1orf50 (UniProt Q9BV19)
inactive: [1] 0.185 | [2] 0.009 | [3] 0.034 | [4] -0.055 | [5] 0.12 | [6] -0.007 | [7] 0.013 | [8] 0.046 | [9] 0.061 | [10] 0.004

CANT1 (UniProt Q8WVQ1)
inactive: [1] -0.001 | [2] 0.02 | [3] 0.008 | [4] 0.013 | [5] -0.016 | [6] 0.051 | [7] 0.004 | [8] -0.035 | [9] -0.04 | [10] -0.001

CALCOCO1 (UniProt Q9P1Z2)
inactive: [1] 0.058 | [2] -0.001 | [3] 0.053 | [4] -0.023 | [5] -0.008 | [6] 0.048 | [7] 0.001 | [8] 0.04 | [9] -0.019 | [10] -0.022

BZW1 isoform 3 (UniProt Q7L1Q6)
inactive: [1] 0.015 | [2] 0.014 | [3] -0.015 | [4] 0.002 | [5] -0.016 | [6] -0.005 | [7] 0.042 | [8] -0.036 | [9] 0.009 | [10] 0

CAD (UniProt P27708)
inactive: [1] -0.009 | [2] -0.016 | [3] 0.03 | [4] -0.002 | [5] 0.005 | [6] -0.005 | [7] 0.026 | [8] 0.009 | [9] 0.009 | [10] 0.018

CACTIN isoform 2 (UniProt Q8WUQ7)
inactive: [1] 0.05 | [2] 0.116 | [3] -0.076 | [4] 0.033 | [5] 0.035 | [6] 0.118 | [7] 0.011 | [8] 0.029 | [9] -0.036 | [10] 0.063

C18orf21 (UniProt Q32NC0)
inactive: [1] -0.025 | [2] 0.115 | [3] 0.053 | [4] -0.092 | [5] 0.099 | [6] -0.004 | [7] -0.09 | [8] -0.045 | [9] 0.102 | [10] 0.109

CAMSAP1 isoform 3 (UniProt Q5T5Y3)
inactive: [1] 0.004 | [2] 0.005 | [3] 0.015 | [4] -0.012 | [5] 0.031 | [6] 0.012 | [7] 0.021 | [8] 0.024 | [9] 0.027 | [10] -0.051

BUD31 (UniProt P41223)
inactive: [1] 0.06 | [2] -0.008 | [3] 0.03 | [4] -0.012 | [5] -0.004 | [6] 0.006 | [7] 0 | [8] 0.1 | [9] 0.004 | [10] 0.035

C6orf47 (UniProt O95873)
inactive: [1] -0.014 | [2] -0.029 | [3] 0.043 | [4] 0.028 | [5] -0.027 | [6] -0.092 | [7] -0.037 | [8] -0.011 | [9] -0.032 | [10] 0.031

CAND1 (UniProt Q86VP6)
inactive: [1] -0.004 | [2] -0.003 | [3] 0.004 | [4] -0.021 | [5] 0.007 | [6] -0.004 | [7] -0.001 | [8] 0.02 | [9] -0.013 | [10] -0.022

CAMK2G isoform 8 (UniProt Q13555)
inactive: [1] 0.036 | [2] 0.173 | [3] -0.022 | [4] 0.009 | [5] -0.001 | [6] -0.019 | [7] 0.073 | [8] -0.03 | [9] 0.05 | [10] -0.027

CALB2 (UniProt P22676)
inactive: [1] 0.085 | [2] 0.016 | [3] 0 | [4] -0.083 | [5] -0.093 | [6] -0.025 | [7] -0.116 | [8] 0.028 | [9] -0.039 | [10] -0.014

C12orf73 (UniProt Q69YU5)
inactive: [1] 0.06 | [2] -0.121 | [3] 0.051 | [4] -0.071 | [5] -0.064 | [6] -0.024 | [7] 0.001 | [8] 0.09 | [9] 0.038 | [10] 0.007

C8orf82 (UniProt Q6P1X6)
inactive: [1] -0.003 | [2] -0.012 | [3] -0.017 | [4] -0.045 | [5] 0.006 | [6] -0.035 | [7] 0.008 | [8] 0.009 | [9] 0.009 | [10] 0.011

CAPZB (UniProt P47756)
inactive: [1] 0.027 | [2] 0.011 | [3] -0.017 | [4] 0.006 | [5] -0.006 | [6] 0 | [7] -0.01 | [8] -0.009 | [9] -0.026 | [10] -0.002

Reprinted at random: 2 entries already listed, in no set order.
CAMSAP1 isoform 3 (UniProt Q5T5Y3)
inactive: [1] 0.004 | [2] 0.005 | [3] 0.015 | [4] -0.012 | [5] 0.031 | [6] 0.012 | [7] 0.021 | [8] 0.024 | [9] 0.027 | [10] -0.051

C12orf73 (UniProt Q69YU5)
inactive: [1] 0.06 | [2] -0.121 | [3] 0.051 | [4] -0.071 | [5] -0.064 | [6] -0.024 | [7] 0.001 | [8] 0.09 | [9] 0.038 | [10] 0.007

The list continues.

BYSL (UniProt Q13895)
inactive: [1] -0.03 | [2] 0.025 | [3] 0.023 | [4] -0.022 | [5] -0.007 | [6] -0.014 | [7] -0.026 | [8] -0.033 | [9] 0.017 | [10] 0.013

C1QBP (UniProt Q07021)
inactive: [1] -0.012 | [2] 0.016 | [3] -0.04 | [4] -0.006 | [5] -0.005 | [6] 0.004 | [7] 0.012 | [8] -0.022 | [9] 0.01 | [10] -0.01

C3 (UniProt P01024)
inactive: [1] -0.047 | [2] -0.011 | [3] -0.077 | [4] -0.032 | [5] 0.865 | [6] 0.243 | [7] -0.004 | [8] 0.01 | [9] 0.026 | [10] 0.001

C17orf75 (UniProt Q9HAS0)
inactive: [1] 0.019 | [2] -0.018 | [3] 0.01 | [4] 0.002 | [5] 0.009 | [6] -0.013 | [7] 0.003 | [8] -0.065 | [9] 0.046 | [10] 0.02

C15orf40 (UniProt Q8WUR7)
inactive: [1] 0.058 | [2] 0.037 | [3] 0.036 | [4] -0.035 | [5] 0.031 | [6] 0 | [7] -0.022 | [8] 0.041 | [9] -0.054 | [10] -0.048

C15orf41 (UniProt Q9Y2V0)
inactive: [1] -0.028 | [2] -0.013 | [3] -0.018 | [4] -0.029 | [5] 0.063 | [6] 0.006 | [7] 0.045 | [8] 0.023 | [9] 0.13 | [10] -0.106

C4orf33 (UniProt Q8N1A6)
inactive: [1] 0.002 | [2] -0.015 | [3] -0.02 | [4] -0.012 | [5] 0.036 | [6] -0.034 | [7] 0.008 | [8] 0.066 | [9] 0.017 | [10] 0.011

BUD23 isoform 3 (UniProt O43709)
inactive: [1] -0.017 | [2] -0.007 | [3] 0.089 | [4] -0.002 | [5] -0.064 | [6] -0.004 | [7] 0.119 | [8] -0.056 | [9] -0.023 | [10] -0.001

C3orf33 (UniProt Q6P1S2)
inactive: [1] -0.045 | [2] -0.084 | [3] 0.17 | [4] 0.012 | [5] -0.001 | [6] 0.046 | [7] -0.031 | [8] 0.117 | [9] -0.205 | [10] 0.008

CACYBP (UniProt Q9HB71)
inactive: [1] -0.016 | [2] 0.006 | [3] -0.042 | [4] -0.002 | [5] 0.009 | [6] -0.028 | [7] -0.001 | [8] -0.008 | [9] -0.003 | [10] -0.024
